For the assay, the system named is BDF1 mice, P388 leukemia ip, median survival T/C. Kind of assay: NCI In Vivo Anticancer Drug Screen. Data for tumor model P388 Leukemia (intraperitoneal) in B6D2F1 (BDF1) mice. As to conditions: T/C endpoint: median survival time, higher T/C = longer survival. Put shortly:
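Read-out is survival of treated animals expressed relative to the vehicle group, as a T/C ratio.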

Setting [1] is: dose: 12.5 mg/kg/injection, schedule: Q01DX009 (ip), vehicle: saline with Tween-80.
Setting [2] is: dose: 25.0 mg/kg/injection, schedule: Q01DX009 (ip), vehicle: saline with Tween-80.
Where [3] appears, read: dose: 50.0 mg/kg/injection, schedule: Q01DX009 (ip), vehicle: saline with Tween-80.

The list does not hold the whole screen: it gathers tests that were run many times, whatever their T/C, doses with no T/C, and many T/C values between a quarter and a half above the control. Further doses and runs are listed elsewhere. T/C is the treated group as % of the vehicle group. Some doses have a count of surviving animals in place of a T/C: the source files T/C as zero there, which appears to mark a toxic dose or a test without result, not a measured value. Some survivor counts are full or nearly so, which does not show that the dose was tolerated: survival well below the control is almost never listed, so the zero probably covers shortened survival too. Survivors were counted at the toxicity check, usually on the fifth day, unless a day is given; later deaths do not show. Schedule codes are those of the source, read here as Q, the interval in days (D) or hours (H), X, the number of doses. Marks such as (2×) count equal records among those shown. Where survival is the endpoint, the PubChem record calls one and a half times the control and up active, and a quarter to a half above the control has no call in these data; cut-offs in other NCI protocols can differ. Some T/C values carry the count of animals alive at the toxicity check (mostly the fifth day); where none is given, no animal had died by that day.

Consider `O=Nc1ccc(O)c2ncccc12`, for which the T/C is 125 % of control (dose: 100.0 mg/kg/injection, schedule: Q01DX001 (ip), vehicle: Klucel (hydroxypropylcellulose) (HPC)) and 128 % of control (dose: 200.0 mg/kg/injection, schedule: Q01DX001 (ip), vehicle: Klucel (hydroxypropylcellulose) (HPC)).

Consider `CC(=O)Nc1c(Cl)c(Cl)c2c(c1Cl)Cc1cc(Br)ccc1-2`, for which the T/C is, setting by setting: (dose: 6.25 mg/kg/injection, schedule: Q01DX009 (ip), vehicle: Klucel (hydroxypropylcellulose) (HPC)) 125 % of control [4 of 6 alive]; (dose: 12.5 mg/kg/injection, schedule: Q01DX009 (ip), vehicle: Klucel (hydroxypropylcellulose) (HPC)) 125 % of control. The survivor count (dose: 100.0 mg/kg/injection, schedule: Q01DX009 (ip), vehicle: saline) is given as 5 of 6.

As to `CN=S(=O)(OCC#CCOS(=O)(=NC)c1ccc(C)cc1)c1ccc(C)cc1` (configuration not stated), the T/C reads like this: under setting [1], 128 % of control [5 of 6 alive]; under setting [2], 145 % of control; under setting [3], 137 % of control. Also, where the note is “dose: 200.0 mg/kg/injection, schedule: Q01DX009 (ip), vehicle: saline + alcohol”, the survivor count is 2 of 6.

As for `CN(C)P(=O)(N(C)C)N1CC1`, the T/C (dose: 50.0 mg/kg/injection, schedule: Q04DX003 (ip), vehicle: saline) was 133 % of control. Also, where the note is “dose: 300.0 mg/kg/injection, schedule: Q04DX003 (ip), vehicle: saline”, the survivor count is 6 of 6.

In the case of `Cc1cc(=O)n(Cc2ccco2)c(=S)[nH]1`, the survivor count (dose: 200.0 mg/kg/injection, schedule: Q01DX005 (ip), vehicle: saline with Tween-80) is 6 of 6.

As for `C[N+]1(C2CCC3CCC2C3O)CCOCC1` (configuration not stated), the survivor count was 6 of 6 (dose: 25.0 mg/kg/injection, schedule: Q01DX009 (ip), vehicle: saline); 5 of 6 (dose: 200.0 mg/kg/injection, schedule: Q04DX003 (ip), vehicle: saline); 0 of 6 (2×) (dose: 400.0 mg/kg/injection, schedule: Q04DX003 (ip), vehicle: saline).

In the case of `CCC(CC)c1ccccn1`, the survivor count (dose: 400.0 mg/kg/injection, schedule: Q01DX009 (ip), vehicle: carboxymethylcellulose (CMC)) is reported as 2 of 6.

As to `Nc1ncnc2c1nnn2C1CC(CO)C(O)C1O` (configuration not stated), the T/C is 142 % of control (dose: 37.0 mg/kg/injection, schedule: Q01DX009 (ip), vehicle: saline with Tween-80) and 136 % of control (dose: 225.0 mg/kg/injection, schedule: Q01DX009 (ip), vehicle: saline with Tween-80).

Consider `O=c1[nH]c2ccccc2nc1CBr`, for which, under setting [1], the T/C is 127 % of control. The survivor count was 5 of 6 under setting [2]; 3 of 6 under setting [3]; 5 of 6 (dose: 50.0 mg/kg/injection, schedule: Q04DX003 (ip), vehicle: saline with Tween-80); 6 of 6 (dose: 100.0 mg/kg/injection, schedule: Q04DX003 (ip), vehicle: saline with Tween-80); 5 of 6 (dose: 200.0 mg/kg/injection, schedule: Q04DX003 (ip), vehicle: saline with Tween-80); 0 of 6 (dose: 400.0 mg/kg/injection, schedule: Q04DX003 (ip), vehicle: saline with Tween-80).

Consider `CCOC(=O)C1OC12CCCCC2` (configuration not stated), for which the survivor count (dose: 100.0 mg/kg/injection, schedule: Q04DX003 (ip), vehicle: Klucel (hydroxypropylcellulose) (HPC)) is 6 of 6.

As to `CN(N=O)c1ccc(/C=C/c2ccnc3ccccc23)cc1`, the T/C by setting is: (dose: 50.0 mg/kg/injection, schedule: Q01DX009 (ip), vehicle: saline sonified) 125 % of control; (dose: 200.0 mg/kg/injection, schedule: Q01DX009 (ip), vehicle: saline sonified) 140 % of control.

Take `CCCC#CC#N`: the survivor count is on record as 2 of 6 (dose: 100.0 mg/kg/injection, schedule: Q01DX009 (ip), vehicle: olive oil, sesame oil, peanut oil) and 0 of 6 (dose: 200.0 mg/kg/injection, schedule: Q01DX009 (ip), vehicle: olive oil, sesame oil, peanut oil).

Regarding `C/C(=N/N=C(N)N)c1ccc(NC(=O)Nc2ccc(/C(C)=N/N=C(N)N)cc2)cc1`, the T/C is 136 % of control under setting [2] and 140 % of control under setting [3].

Turning to `Nc1nc(N)c(-c2ccc(Cl)c(Cl)c2)c(COc2cccc(CNC(=O)c3cccc(S(=O)(=O)F)c3)c2)n1`, the T/C (dose: 130.0 mg/kg/injection, schedule: Q01DX009 (ip), vehicle: Klucel (hydroxypropylcellulose) (HPC)) is 145 % of control; the T/C (dose: 132.0 mg/kg/injection, schedule: Q04DX003 (ip), vehicle: Klucel (hydroxypropylcellulose) (HPC)) was 140 % of control; the T/C (dose: 200.0 mg/kg/injection, schedule: Q04DX003 (ip), vehicle: Klucel (hydroxypropylcellulose) (HPC)) was 145 % of control.

For the compound `C=C(NC(=O)C(=C)NC(=O)c1csc(C2=NC3c4csc(n4)C4NC(=O)c5csc(n5)C(C(C)(O)C(C)O)NC(=O)C5CSC(=N5)/C(=C/C)NC(=O)C(C(C)O)NC(=O)c5csc(n5)C3(CC2)NC(=O)C(C)NC(=O)C(=C)NC(=O)C(C)NC(=O)C(C(C)CC)NC2C=Cc3c(C(C)O)cc(nc3C2O)C(=O)OC4C)n1)C(N)=O` (configuration not stated), the T/C (dose: 50.0 mg/kg/injection, schedule: Q01DX009 (ip), vehicle: Klucel (hydroxypropylcellulose) (HPC)) is 140 % of control; the T/C (dose: 100.0 mg/kg/injection, schedule: Q01DX009 (ip), vehicle: Klucel (hydroxypropylcellulose) (HPC)) is 142 % of control; the T/C (dose: 150.0 mg/kg/injection, schedule: Q01DX009 (ip), vehicle: Klucel (hydroxypropylcellulose) (HPC)) is 133 % of control.

Turning to `Nc1ncnc2c(C3OC(CO)C(O)C3O)[nH]nc12` (configuration not stated), the T/C runs as follows: (dose: 3.13 mg/kg/injection, schedule: Q01DX009 (ip), vehicle: saline) 127 % of control; (dose: 3.5 mg/kg/injection, schedule: Q01DX009 (ip), vehicle: saline) 126 % of control; (dose: 5.2 mg/kg/injection, schedule: Q01DX009 (ip), vehicle: saline) 131 % of control; (dose: 6.25 mg/kg/injection, schedule: Q01DX009 (ip), vehicle: saline) 136 % of control; (dose: 12.0 mg/kg/injection, schedule: Q01DX009 (ip), vehicle: saline) 140 % of control; (dose: 18.0 mg/kg/injection, schedule: Q01DX009 (ip), vehicle: saline) 145 % of control. Further, for the setting “dose: 50.0 mg/kg/injection, schedule: Q04DX003 (ip), vehicle: saline sonified”, the T/C was 127 % of control. Also, the survivor count under setting [2] was 6 of 6; the survivor count under setting [3] is given as 4 of 6; the survivor count (dose: 100.0 mg/kg/injection, schedule: Q01DX009 (ip), vehicle: saline with Tween-80) is recorded as 0 of 6; the survivor count (dose: 200.0 mg/kg/injection, schedule: Q04DX003 (ip), vehicle: saline sonified) is on record as 5 of 6.

On to `COc1ccc(C=C2C(=O)N(C)C(=O)N(C)C2=O)cc1`, for which the T/C by setting is: (dose: 100.0 mg/kg/injection, schedule: Q01DX009 (ip), vehicle: other) 128 % of control; (dose: 200.0 mg/kg/injection, schedule: Q01DX009 (ip), vehicle: other) 135 % of control.

Turning to `CC1(C)N=C(N)N=C(N)N1c1ccc(Cl)c(Cl)c1`, the T/C is, setting by setting: (dose: 9.9 mg/kg/injection, schedule: Q01DX009 (ip), vehicle: Klucel (hydroxypropylcellulose) (HPC)) 136 % of control; (dose: 10.7 mg/kg/injection, schedule: Q01DX009 (ip), vehicle: Klucel (hydroxypropylcellulose) (HPC)) 145 % of control; (dose: 60.0 mg/kg/injection, schedule: Q04DX003 (ip), vehicle: Klucel (hydroxypropylcellulose) (HPC)) 140 % of control. The survivor count is given as 5 of 6 (dose: 60.0 mg/kg/injection, schedule: Q01DX009 (ip), vehicle: Klucel (hydroxypropylcellulose) (HPC)) and 2 of 6 (dose: 80.0 mg/kg/injection, schedule: Q04DX003 (ip), vehicle: Klucel (hydroxypropylcellulose) (HPC)).

Turning to `CCOC(=O)c1c(NC(=O)C(F)(F)F)[nH]c(SSc2[nH]c(NC(=O)C(F)(F)F)c(C(=O)OCC)c2C(=O)OCC)c1C(=O)OCC`, under “dose: 300.0 mg/kg/injection, schedule: Q04DX003 (ip), vehicle: saline with Tween-80”, the survivor count is 2 of 6.

Source of the values: PubChem BioAssay AID328 (DTP/NCI, 2004).
